Assay results reported in PubChem BioAssay AID540276 (National Center for Advancing Translational Sciences (NCATS), 2011).
Out of some 300,000 compounds screened, about 5,400 (1.8%) were called active. Inconclusive results, whose numbers are uncertain, are shown with a selection of clear calls. Calls follow the shape of the full dose curve; tested in HEK293 cells. Where the call is inconclusive, the potency comes from a doubtful curve fit.

assay: qHTS for inhibitors of binding or entry into cells for Marburg Virus; settings: Marburg virus pseudotyped entry inhibition, cell reporter; activity change, negative = inhibition: at 37.8 µM (top of the series) unless noted
% is scaled to controls: 0 for no effect and ±100 for the full control effect; potency is read from the fitted curve at half-maximal effect.

Row | SMILES | activity change, negative = inhibition | Potency
1 | COc1ccc(CC(NC(C)=O)C(=O)NC2CCN(C(=O)C3CCCCC3)CC2)cc1OC (stereo unspecified) | inactive: 6.16% [at 46.1 µM] | 
2 | Cc1cccc(NC(=O)C2C3CCC4C(CCC32)C4(Cl)Cl)c1 (stereo unspecified) | inactive: -0.253% | 
3 | COc1ccc(C)cc1NS(=O)(=O)c1cc(C)ccc1C | inactive: -0.654% | 
4 | Cc1cccc(NC(=S)N(Cc2cccs2)Cc2cc3cc(C)cc(C)c3[nH]c2=O)c1 |  | inconclusive: 6.31 µM [inhibitor, partial curve, poor fit]
5 | CCN(CC)CCSc1nnc2c3cc(F)ccc3n(Cc3ccccc3)c2n1 | inactive: -0.965% [at 46.1 µM] | 
6 | CC1=NN(C(=O)c2cc(C)nn2C)C(O)(C(F)(F)F)C1 (stereo unspecified) |  | inconclusive: 25.1 µM [activator, single point]
7 | O=S(=O)(NCc1cccc(C(F)(F)F)c1)NCc1ccccc1F |  | inconclusive: 2 µM [inhibitor, single point]
8 | COC(=O)c1ccccc1NC(=O)C1=CC(c2ccc(C)cc2)=NS(=O)(=O)N1C |  | inconclusive: 35.5 µM [inhibitor, partial curve, poor fit]
9 | CCOC(=O)C1CCN(Cc2ccc(O)c(OC)c2)CC1 | inactive: 5.3% | 
10 | Cc1nc(S/C(=C/c2ccc(-c3ccc(Cl)cc3)o2)C(=O)O)n[nH]1 | inactive: 15.6% | 
11 | N#Cc1ccc(-c2cccnc2)nc1SCc1ccc(Cl)cc1Cl |  | inconclusive: 35.5 µM [inhibitor, single point]
12 | O=C(CCS(=O)(=O)c1nc(-c2cccs2)cc(C(F)(F)F)n1)Nc1ccc(OC(F)(F)F)cc1 |  | inconclusive: 0.631 µM [inhibitor, full curve, poor fit]
13 | O=C(CSc1nc2[nH]ncc2c(=O)[nH]1)NCc1ccc(F)cc1 |  | inconclusive: 31.6 µM [activator, single point]
14 | O=C1NN(c2ccc(F)c(Cl)c2)C(=O)/C1=C\c1cccc(OC(=O)c2cccs2)c1 | inactive: 10.9% | 
15 | CC(C)[C@H](NC(=O)C1CCN(S(=O)(=O)c2ccc(F)cc2)CC1)C(=O)N1CCCC1 |  | inconclusive: 35.5 µM [activator, single point]
16 | CCc1nonc1NC(=O)c1oc2cc(Br)ccc2c1C | inactive: 3.3% [at 46.1 µM] | 
17 | CS(=O)(=O)c1ccc(Cl)c(NC(=O)CSC(=S)N2CCCC2)c1 |  | inconclusive: 35.5 µM [activator, single point]
18 | O=C(c1cc([N+](=O)[O-])ccc1N1CCCCC1)N1CCc2ccccc21 |  | active: 4.47 µM
19 | O=C(Cn1cc([N+](=O)[O-])ccc1=O)NCC1COc2ccccc2O1 (stereo unspecified) |  | inconclusive: 20 µM [activator, single point]
20 | CCCOc1ccc(C(=O)NCCN2CCOCC2)cc1 | inactive: 16.2% | 
21 | O=C(c1c(F)cccc1F)N(Cc1ccccn1)C1CC1 | inactive: 9.04% | 
22 | Cc1onc(C(=O)NN)c1C(=O)Nc1ncc(C(F)(F)F)cc1Cl | inactive: -22.5% [at 46.1 µM] | 
23 | CCC(c1nnnn1Cc1ccccc1)N1CCN(C(=O)c2ccco2)CC1 (stereo unspecified) | inconclusive: 6.12% [activator] | 

Row | SMILES | activity change, negative = inhibition | Potency
24 | CCOC(=O)C1(Cc2ccc(Cl)cc2)CCN(C2CCC2)CC1 |  | inconclusive: 22.4 µM [inhibitor, single point]
25 | CCN(CC)CCNc1nc(-c2ccccc2)c2c(c1C#N)CC(C)(C)OC2 |  | inconclusive: 10 µM [inhibitor, partial curve]
26 | COc1ccc(C2CC3(CC(C)(C)NC(=S)N3)Oc3cc(O)cc(C)c32)cc1OC (stereo unspecified) |  | inconclusive: 0.562 µM [inhibitor, full curve, poor fit]
27 | Cn1c(-c2ccc[nH]c2=O)nc2cc(Cl)ccc21 |  | inconclusive: 6.31 µM [inhibitor, single point]
28 | O=C(Oc1ccc2c(c1)CCC2)N1CCOCC1 |  | inconclusive: 1.83 µM [activator, full curve, poor fit]
29 | COc1ccccc1/C=C/c1nc(S(=O)(=O)c2ccccc2)c(N(C)C)o1 | inactive: -19.1% [at 46.1 µM] | 
30 | COCCN(C(=O)COC(=O)CCCOc1ccccc1)c1c(N)n(Cc2ccccc2)c(=O)[nH]c1=O |  | inconclusive: 3.98 µM [inhibitor, single point]
31 | O=C(NCc1ccccc1)NC(=O)c1ccccc1 | inactive: 16.4% | 
32 | Cc1ccc(C(C)NC(=O)c2cccnc2)cc1 (stereo unspecified) |  | inconclusive: 2.82 µM [activator, single point]
33 | O=C(/C=C/c1ccccn1)c1cc(Br)ccc1O |  | inconclusive: 32.6 µM [inhibitor, single point]
34 | c1ccc(-c2noc(CN3CCc4sccc4C3)n2)cc1 | inactive: -3.77% [at 46.1 µM] | 
35 | CCOC(=O)c1c(CSC(=N)N)n(-c2ccccc2)c2cc(Br)c(OC(C)=O)cc12 |  | inconclusive: 20 µM [inhibitor, single point]
36 | O=C(Nc1ccc2oc(=O)ccc2c1)c1ccc(-c2cccc([N+](=O)[O-])c2)o1 |  | inconclusive: 25.1 µM [inhibitor, partial curve, poor fit]
37 | CCOc1ccc(-c2nonc2NC(=O)c2oc3ccc(F)cc3c2C)cc1 |  | inconclusive: 35.5 µM [activator, single point]
38 | Cc1ccc(/C=C(\C#N)C(=O)Nc2c(C)cccc2C)s1 | inactive: -18.1% | 
39 | CSc1cccc(NC(=S)N2CCCN(Cc3ccc(F)cc3)C2)c1 |  | active: 6.31 µM
40 | CC(CC(=O)O)CC(=O)Nc1cccc([N+](=O)[O-])c1 (stereo unspecified) | inactive: -5.21% [at 46.1 µM] | 
41 | CC1(C)OC(c2ccccc2)=C/C(=C/C=C2C(=O)NC(=S)NC2=O)O1 |  | inconclusive: 20 µM [inhibitor, partial curve, poor fit]
42 | CC(C)(C)c1ccc(Cn2c(Cc3ccccc3)nc3ccccc32)cc1 |  | inconclusive: 35.5 µM [inhibitor, single point]
43 | CCN1C(=O)CC(N2CCC(Nc3ccc(F)cc3)CC2)C1=O (stereo unspecified) |  | inconclusive: 3.98 µM [activator, partial curve, poor fit]
44 | C/C(=N\NC(N)=S)c1cc(-c2ccccc2)c(-c2ccccc2)s1 |  | inconclusive: 8.91 µM [inhibitor, partial curve, poor fit]
45 | CN(C)S(=O)(=O)c1cccc(NC(=O)C2CCN(S(=O)(=O)c3cccs3)CC2)c1 |  | inconclusive: 7.94 µM [inhibitor, partial curve, poor fit]
46 | CCOc1ccc(S(=O)(=O)Nc2cccc(C(=O)NCC3(N4CCCCC4)CCCCC3)c2)cc1 |  | inconclusive: 14.1 µM [inhibitor, partial curve, poor fit]

Retrieved by compound from the entries so far, 3 records:
Row | SMILES | activity change, negative = inhibition | Potency
44 | C/C(=N\NC(N)=S)c1cc(-c2ccccc2)c(-c2ccccc2)s1 |  | inconclusive: 8.91 µM [inhibitor, partial curve, poor fit]
43 | CCN1C(=O)CC(N2CCC(Nc3ccc(F)cc3)CC2)C1=O (stereo unspecified) |  | inconclusive: 3.98 µM [activator, partial curve, poor fit]
2 | Cc1cccc(NC(=O)C2C3CCC4C(CCC32)C4(Cl)Cl)c1 (stereo unspecified) | inactive: -0.253% | 
